Measured values published in paper PMC9021288 (Nature Communications, 2022).
Several values for one entry are separate records, joined by “and”; a condition that tells them apart may be missing. Equal entries are not always repeated. This continues a long series; more values of the same kind are listed elsewhere.

How the values were obtained:
Type in all cases: in vivo, Wistar Han rats
[1] = 8-day Dose Range Finding (DRF) rat study
Text: (§1) See the summary of the study design in Supplementary Table 31. Nine-week-old Wistar (Crl:WI (Han)) rats were obtained from Charles River Laboratories (Domaine des Oncins, Saint-Germain-Nuelles, France). […] Animals were examined daily for any altered clinical signs, body weights, and food consumption. Blood samples were taken at different timepoints after the test item administration, and toxicokinetic exposure assessed under the defined experimental conditions and analyzed using Phoenix (version 6.4 and 1.4) (Supplementary Table 32). Measurements included hematology and clinical chemistry measurements. Animals were euthanized and necropsied at the end of the dosing period. At necropsy, major organ systems and tissues were collected and weighed and then examined for gross lesions as well as for microscopic changes.

[2] = 7-day PK toxicity rat study; set-up: unit not given here
Text: as §1

[3] = 7-day Maximum Tolerated Dose 1 (MTD1) rat study; settings: for Concentration: MTD1 males, 8 h; for Liver weight: MTD1 study, individual animals
Text: as §1

## C[C@@H](CNC(=O)[C@H](O)C(C)(C)CO)NC(=O)c1cc(F)c(F)cc1F [MMV693183]
[1]; DRF females, Day 1 (left block), 10 mg/kg/day, 1 h, 10 mg/kg/day
  Concentration: 1730 ng/mL and 1640 ng/mL and 1600 ng/mL
[1]; DRF females, Day 1 (left block), 10 mg/kg/day, 4 h, 10 mg/kg/day
  Concentration: 253 ng/mL and 168 ng/mL and 193 ng/mL
[1]; DRF females, Day 1 (left block), 10 mg/kg/day, 8 h, 10 mg/kg/day
  Concentration: 92.6 ng/mL and 87.5 ng/mL and 52.6 ng/mL
[1]; DRF females, Day 1 (left block), 10 mg/kg/day, 24 h
  Concentration: < 30 ng/mL
[1]; DRF females, Day 1 (left block), 30 mg/kg/day, 1 h, 30 mg/kg/day
  Concentration: 7380 ng/mL and 5250 ng/mL and 5380 ng/mL and 5670 ng/mL and 6850 ng/mL and 9140 ng/mL
[1]; DRF females, Day 1 (left block), 30 mg/kg/day, 4 h, 30 mg/kg/day
  Concentration: 652 ng/mL and 542 ng/mL and 741 ng/mL and 585 ng/mL and 787 ng/mL and 720 ng/mL
[1]; DRF females, Day 1 (left block), 30 mg/kg/day, 8 h, 30 mg/kg/day
  Concentration: 210 ng/mL and 290 ng/mL and 238 ng/mL and 241 ng/mL and 263 ng/mL and 336 ng/mL
[1]; DRF females, Day 1 (left block), 30 mg/kg/day, 24 h
  Concentration: < 30 ng/mL
[1]; DRF females, Day 1 (right block, head c13), 10 mg/kg/day, 1 h
  Concentration: 1850 ng/mL and 1660 ng/mL and 1520 ng/mL
[1]; DRF females, Day 1 (right block, head c13), 10 mg/kg/day, 4 h
  Concentration: 175 ng/mL and 194 ng/mL and 126 ng/mL
[1]; DRF females, Day 1 (right block, head c13), 10 mg/kg/day, 24 h
  Concentration: < 30 ng/mL
[1]; DRF females, Day 1 (right block, head c13), 30 mg/kg/day, 1 h
  Concentration: 5450 ng/mL and 5750 ng/mL and 7050 ng/mL and 6530 ng/mL and 5780 ng/mL and 5590 ng/mL
[1]; DRF males, Day 1, 10 mg/kg/day, 1 h
  Concentration: 2050 ng/mL and 1820 ng/mL and 2600 ng/mL
[1]; DRF males, Day 1, 10 mg/kg/day, 4 h
  Concentration: 294 ng/mL and 192 ng/mL and 232 ng/mL
[1]; DRF males, Day 1, 10 mg/kg/day, 8 h
  Concentration: 144 ng/mL and 94.3 ng/mL and 74.5 ng/mL
[1]; DRF males, Day 1, 10 mg/kg/day, 24 h
  Concentration: < 30 ng/mL
[1]; DRF males, Day 1, 30 mg/kg/day, 1 h
  Concentration: 5740 ng/mL and 6410 ng/mL and 5800 ng/mL and 5930 ng/mL and 5050 ng/mL and 8210 ng/mL
[1]; DRF males, Day 1, 30 mg/kg/day, 8 h
  Concentration: 620 ng/mL and 352 ng/mL and 487 ng/mL and 486 ng/mL and 475 ng/mL and 332 ng/mL
[1]; DRF males, Day 1, 30 mg/kg/day, 24 h
  Concentration: < 30 ng/mL
[1]; DRF males, Day 7, 10 mg/kg/day, 1 h
  Concentration: 1380 ng/mL and 1130 ng/mL and 1750 ng/mL
[1]; DRF males, Day 7, 10 mg/kg/day, 8 h
  Concentration: 121 ng/mL and 99.5 ng/mL and 104 ng/mL
[1]; DRF males, Day 7, 10 mg/kg/day, 24 h
  Concentration: < 30 ng/mL
[1]; DRF males, Day 7, 30 mg/kg/day, 24 h
  Concentration: < 30 ng/mL
[2]; Females 60 mg/kg/day, Day 1, 0.5 hr
  Concentration (PK study): 28000 and 28300 and 24900
[2]; Females 60 mg/kg/day, Day 1, 1 hr
  Concentration (PK study): 17300 and 14000 and 17800
[2]; Females 60 mg/kg/day, Day 1, 2 hr
  Concentration (PK study): 7150 and 8300 and 5530
[2]; Females 60 mg/kg/day, Day 1, 4 hr
  Concentration (PK study): 869 and 1410 and 1270
[2]; Females 60 mg/kg/day, Day 3, 0.5 hr
  Concentration (PK study): 26900 and 24200 and 25000
[2]; Females 60 mg/kg/day, Day 3, 1 hr
  Concentration (PK study): 14000 and 15300 and 14600
[2]; Females 60 mg/kg/day, Day 3, 2 hr
  Concentration (PK study): 4990 and 4170 and 4890
[2]; Females 60 mg/kg/day, Day 3, 4 hr
  Concentration (PK study): 1990 and 1480 and 1110
[2]; Females 60 mg/kg/day, Day 4, 0.5 hr
  Concentration (PK study): 27000 and 26700 and 22800
[2]; Females 60 mg/kg/day, Day 4, 1 hr
  Concentration (PK study): 14000 and 17700 and 12600
[2]; Females 60 mg/kg/day, Day 4, 2 hr
  Concentration (PK study): 4820 and 4290 and 4650
[2]; Females 60 mg/kg/day, Day 4, 4 hr
  Concentration (PK study): 1730 and 1230 and 1460
[2]; Females 60 mg/kg/day, Day 5, 0.5 hr
  Concentration (PK study): 26600 and 23300 and 21000
[2]; Females 60 mg/kg/day, Day 5, 1 hr
  Concentration (PK study): 12300 and 10200 and 11700
[2]; Females 60 mg/kg/day, Day 5, 2 hr
  Concentration (PK study): 3890 and 5880 and 4840
[2]; Females 60 mg/kg/day, Day 5, 4 hr
  Concentration (PK study): 1590 and 1870 and 1340
[2]; Females 60 mg/kg/day, Day 6, 0.5 hr
  Concentration (PK study): 24800 and 22900 and 20900
[2]; Females 60 mg/kg/day, Day 6, 1 hr
  Concentration (PK study): 10500 and 9660 and 8660
[2]; Females 60 mg/kg/day, Day 6, 2 hr
  Concentration (PK study): 4340 and 4860 and 4040
[2]; Females 60 mg/kg/day, Day 6, 4 hr
  Concentration (PK study): 933 and 1400 and 1550
[2]; Females 60 mg/kg/day, Day 7, 0.5 hr
  Concentration (PK study): 28500 and 26900 and 17200
[2]; Females 60 mg/kg/day, Day 7, 1 hr
  Concentration (PK study): 13200 and 10800 and 14400
[2]; Females 60 mg/kg/day, Day 7, 2 hr
  Concentration (PK study): 5340 and 7540 and 7930
[2]; Males 60 mg/kg/day, Day 1, 2 hr
  Concentration (PK study): 7990 and 6920
[2]; Males 60 mg/kg/day, Day 1, 24 hr
  Concentration (PK study): LLoQ
[2]; Males 60 mg/kg/day, Day 3, 2 hr
  Concentration (PK study): 2390 and 3250 and 3040
[2]; Males 60 mg/kg/day, Day 3, 8 hr
  Concentration (PK study): 510 and 258 and 323
[2]; Males 60 mg/kg/day, Day 3, 24 hr
  Concentration (PK study): LLoQ
[2]; Males 60 mg/kg/day, Day 4, 2 hr
  Concentration (PK study): 2880 and 1910
[2]; Males 60 mg/kg/day, Day 4, 24 hr
  Concentration (PK study): LLoQ
[2]; Males 60 mg/kg/day, Day 5, 2 hr
  Concentration (PK study): 1240 and 869
[2]; Males 60 mg/kg/day, Day 5, 24 hr
  Concentration (PK study): LLoQ
[2]; Males 60 mg/kg/day, Day 6, 2 hr
  Concentration (PK study): 803 and 925
[2]; Males 60 mg/kg/day, Day 6, 24 hr
  Concentration (PK study): LLoQ
[2]; Males 60 mg/kg/day, Day 7, 2 hr
  Concentration (PK study): 990 and 1000
[2]; Males 60 mg/kg/day, Day 7, 4 hr
  Concentration (PK study): 182 and 270 and 217
[2]; Males 60 mg/kg/day, Day 7, 24 hr
  Concentration (PK study): LLoQ
[2]; Males 200 mg/kg/day, Day 1, 0.5 hr
  Concentration (PK study): 51700 and 68600 and 61400
[2]; Males 200 mg/kg/day, Day 1, 1 hr
  Concentration (PK study): 75000 and 77600 and 77200
[2]; Males 200 mg/kg/day, Day 1, 2 hr
  Concentration (PK study): 34000 and 44200 and 32100
[2]; Males 200 mg/kg/day, Day 3, 0.5 hr
  Concentration (PK study): 19000 and 21800 and 18300
[2]; Males 200 mg/kg/day, Day 3, 1 hr
  Concentration (PK study): 9570 and 10800 and 16900
[2]; Males 200 mg/kg/day, Day 3, 4 hr
  Concentration (PK study): 1400 and 1390 and 1750
[2]; Males 200 mg/kg/day, Day 3, 24 hr
  Concentration (PK study): LLoQ
[2]; Males 200 mg/kg/day, Day 4, 0.5 hr
  Concentration (PK study): 10400 and 15700 and 14100
[2]; Males 200 mg/kg/day, Day 4, 1 hr
  Concentration (PK study): 7140 and 5790 and 6860
[2]; Males 200 mg/kg/day, Day 4, 2 hr
  Concentration (PK study): 2930 and 3060 and 2740
[2]; Males 200 mg/kg/day, Day 4, 4 hr
  Concentration (PK study): 1520 and 1900 and 970
[2]; Males 200 mg/kg/day, Day 4, 8 hr
  Concentration (PK study): 354 and 449 and 526
[2]; Males 200 mg/kg/day, Day 4, 24 hr
  Concentration (PK study): LLoQ
[2]; Males 200 mg/kg/day, Day 5, 0.5 hr
  Concentration (PK study): 13400 and 15300
[2]; Males 200 mg/kg/day, Day 5, 1 hr
  Concentration (PK study): 4990 and 7470 and 6880
[2]; Males 200 mg/kg/day, Day 5, 4 hr
  Concentration (PK study): 637 and 1100 and 721
[2]; Males 200 mg/kg/day, Day 5, 24 hr
  Concentration (PK study): LLoQ
[2]; Males 200 mg/kg/day, Day 6, 0.5 hr
  Concentration (PK study): 8010 and 12900 and 11500
[2]; Males 200 mg/kg/day, Day 6, 4 hr
  Concentration (PK study): 843 and 1050 and 1160
[2]; Males 200 mg/kg/day, Day 6, 24 hr
  Concentration (PK study): LLoQ
[2]; Males 200 mg/kg/day, Day 7, 0.5 hr
  Concentration (PK study): 19800 and 20000 and 15100
[2]; Males 200 mg/kg/day, Day 7, 4 hr
  Concentration (PK study): 1230 and 993 and 731
[2]; Males 200 mg/kg/day, Day 7, 8 hr
  Concentration (PK study): 312 and 235 and 430
[2]; Males 200 mg/kg/day, Day 7, 24 hr
  Concentration (PK study): LLoQ
[3]; Day 1, 60 mg/kg/day
  Concentration: 0.883 µM and 0.532 µM
[3]; Day 1, 200 mg/kg/day
  Concentration: 3.68 µM and 6.03 µM
[3]; Day 1, 600 mg/kg/day
  Concentration: 29.3 µM and 33.1 µM
[3]; females, 60 mg/kg/day
  Liver weight: 4.59 g
[3]; females, 200 mg/kg/day
  Liver weight: 6.09 g
[3]; females, 600 mg/kg/day
  Liver weight: 8.38 g and 6.99 g
[3]; males, 60 mg/kg/day
  Liver weight: 7.34 g
[3]; males, 200 mg/kg/day
  Liver weight: 9.96 g
[3]; males, 600 mg/kg/day
  Liver weight: 10.46 g
